The text below walks through data of PMC7819943, “Rice protein-binding microarrays: a tool to detect cis-acting elements near promoter regions in rice”.

Chains of the proteins cited; added tags and fusions are not shown.
UniProt Q0JBA9, entry or part of it: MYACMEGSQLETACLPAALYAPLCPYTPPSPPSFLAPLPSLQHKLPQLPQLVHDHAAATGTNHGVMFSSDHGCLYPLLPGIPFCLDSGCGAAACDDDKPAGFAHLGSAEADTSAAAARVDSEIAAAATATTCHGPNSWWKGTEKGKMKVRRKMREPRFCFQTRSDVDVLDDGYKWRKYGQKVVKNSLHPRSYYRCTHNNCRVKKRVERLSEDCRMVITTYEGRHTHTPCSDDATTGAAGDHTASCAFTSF

The other results are listed elsewhere or left out.

This test has as its target OsWRKY34 (Oryza sativa, UniProt Q0JBA9 1-250). The experiment in a line: protein-binding microarray (RPBM); PBS, 2% BSA, 51.3 ng/ul salmon testes DNA, 50 uM zinc acetate, 200 nM TF, 25 C, 1 h; high values mean tight binding. Conditions: protein: recombinant; tags: N-terminal polyhistidine and DsRed monomer fusion (pET32a); label: CyDye5-dUTP incorporated in the synthesized complementary strand; 3' TTTTT single-stranded linker to array surface; dsDNA, one strand shown. The method in brief: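 The binding signal for each feature is its fluorescence intensity in arbitrary units. An Axon 4000B scanner was used to read a custom Agilent array that had been made double-stranded with Cy5-dUTP primer extension, blocked with 2% BSA, incubated at 25 °C for 1 h with 200 nM protein in PBS, 2% BSA, salmon testes DNA and 50 µM zinc acetate, and washed. The protein was an N-terminal polyhistidine–DsRed transcription factor fusion from E. coli BL21-CodonPlus, purified on Ni–NTA.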
For the sequence “GACCTGTTGTGTATATCTGAGATCCAGTAACCAATTTTCACGGAGTCACCTAGTGCAG”, the binding signal is 8360 fluorescence intensity (a.u.).
On to “CAGCTCCACCTCACGCGCGCTTCGCCTCGCCGCGCCTCGTCGGAGTCACCTAGTGCAG”, for which the binding signal was 8790 fluorescence intensity (a.u.).
To “CTCCGGCCACGGTTGGGTCATTGTCTATGACCCGATCTTCCGGAGTCACCTAGTGCAG” belongs 8040 fluorescence intensity (a.u.); to “TGCTGCAGGTATGTATCATCACGGTGGTCAACGCGGCGAACGGAGTCACCTAGTGCAG”, 9800 fluorescence intensity (a.u.); to “CAACTACTCACCATCTTTTTATCAGTCGACCATATATATACGGAGTCACCTAGTGCAG”, 10500 fluorescence intensity (a.u.).
To “TAGTCTACTCTTTCAACACTCCTTATTTTTAATTCTGAATCGGAGTCACCTAGTGCAG” belongs 8150 fluorescence intensity (a.u.); to “AATCCATTTTTGCTTCCTCTGTTTTGTAATAATCAGTTGTCGGAGTCACCTAGTGCAG”, 10500 fluorescence intensity (a.u.).
To “CGCCGAGTGACCTCGTTTGCACCGGTTTTGATAGTTCAGACGGAGTCACCTAGTGCAG” belongs 8080 fluorescence intensity (a.u.).
As for “GGTTGCATAGAGCGATGTTTTTTTAATATAGTTTATACCTCGGAGTCACCTAGTGCAG”, the binding signal is 8240 fluorescence intensity (a.u.).
To “GAAGTTTGGGTGGGCCGGGCTCATTCATCATCAGCCCATCCGGAGTCACCTAGTGCAG” belongs 8170 fluorescence intensity (a.u.).
With “GCCATTATATCTGCAGTTCTTTTCTGTGCTAAAATTTTAGCGGAGTCACCTAGTGCAG”, the binding signal was 17100 fluorescence intensity (a.u.).
To “CCACTATGGAATTAAACCCTATCATGTGACACATTTGTTACGGAGTCACCTAGTGCAG” belongs 8240 fluorescence intensity (a.u.); to “CTGGGTGTTCAGATATATTACTAGAGGTCATACCATACAACGGAGTCACCTAGTGCAG”, 8130 fluorescence intensity (a.u.); to “AGGTAGTTTCCGTTCGTTTTCATACCGTTTTCATCCCTAGCGGAGTCACCTAGTGCAG”, 9960 fluorescence intensity (a.u.).
With “TCATCATCCCTACGCCTCGTCGTGCCCGTGTGTGCTATGCCGGAGTCACCTAGTGCAG” the figure was 8640 fluorescence intensity (a.u.).
With “CGTCGCCGCCTCGTCGTCCTCGCTGGCACACCTTCGCCGTCGGAGTCACCTAGTGCAG” the figure was 8530 fluorescence intensity (a.u.).
For the sequence “ATTAAAAGATCTTCTCTCGATCGGTTCTCGCCATTCATCCCGGAGTCACCTAGTGCAG”, the binding signal was 10500 fluorescence intensity (a.u.).
To “CCTGCCACCGTGCCACCGCCTCTCCGTCCCCATCACCCTCCGGAGTCACCTAGTGCAG” belongs 8750 fluorescence intensity (a.u.).
With “CTTCTCGAGTTCATGGCTTCCTTCTTCGGCCGCCGACTCACGGAGTCACCTAGTGCAG” the figure was 8450 fluorescence intensity (a.u.); with “CCTCCTCTACACCTTGTCTCCGCCTCGCGGGAGACCACACCGGAGTCACCTAGTGCAG”, 8590 fluorescence intensity (a.u.); with “TGTATTTGTCGGCTTGCATCGTCACGGTCTCTGTCACCTCCGGAGTCACCTAGTGCAG”, 10700 fluorescence intensity (a.u.).
With “GGGAGATCTGGTTATTAGTAGTGCATTGTGTATTCTTTTCCGGAGTCACCTAGTGCAG” the figure was 16300 fluorescence intensity (a.u.); with “ATTTCCAGCATGTACTTGCATTATCCATTTTTTCTTTACCCGGAGTCACCTAGTGCAG”, 11000 fluorescence intensity (a.u.).
“TCCATCTCTTTCTCGTGCATGCACATGATCCGAGGCACAGCGGAGTCACCTAGTGCAG”: the binding signal is 8430 fluorescence intensity (a.u.).
With “CCCTTGTTTAGTTCGTGAAAAAAAATTTTTGGGTGTCACACGGAGTCACCTAGTGCAG” the figure was 9040 fluorescence intensity (a.u.).
As for “ACCCTGGTTTCCATGCCCAACGTTTGACCTTCCGTCTTATCGGAGTCACCTAGTGCAG”, the binding signal is 11200 fluorescence intensity (a.u.).
Turning to “AGTCTTTGGGAGCTAGTGTTGAGTTGTACATTTGGGGATACGGAGTCACCTAGTGCAG”, the binding signal is 10900 fluorescence intensity (a.u.).
To “GATACGATGACAGACACGCCGCTGGCCGCTTGACCTCGCCCGGAGTCACCTAGTGCAG” belongs 8520 fluorescence intensity (a.u.); to “CGATTGACCCCTTTACCACATTACACTGTTCTGTACAGTTCGGAGTCACCTAGTGCAG”, 10800 fluorescence intensity (a.u.).
To “AAGCTTTCTCAACCGTTTATATCCCGAGTTTTGTTCGCTCCGGAGTCACCTAGTGCAG” belongs 9610 fluorescence intensity (a.u.); to “TCCGCGCCGTCACCTCACCTCCCGTCGTCGTCTCCTATTCCGGAGTCACCTAGTGCAG”, 12800 fluorescence intensity (a.u.); to “AAATGGGGTGAGATGAATGGATGGCTAAAATTGAAACTTACGGAGTCACCTAGTGCAG”, 8060 fluorescence intensity (a.u.).
To “GTCCGCTCGCGCCAGCTCATGCATGTTCTCTCTCTTTAGCCGGAGTCACCTAGTGCAG” belongs 13100 fluorescence intensity (a.u.); to “CCTGCCTGCCTAAGCATTGTCATAAGTGCTTCGACTCTTTCGGAGTCACCTAGTGCAG”, 9710 fluorescence intensity (a.u.); to “CAACCTACCGGTTCGTGATGGCGGGGCGGCTGGCTGACAACGGAGTCACCTAGTGCAG”, 8610 fluorescence intensity (a.u.).
“TGCGCTCGTGAGGTGAATGCCCATACATTTGTTAGATTTTCGGAGTCACCTAGTGCAG”: the binding signal was 9830 fluorescence intensity (a.u.).
On to “ACGAGACGACCTGACCTTTCTCTTCTCCATCTCCACCCCGCGGAGTCACCTAGTGCAG”, for which the binding signal is 8670 fluorescence intensity (a.u.).
To “TGTATCATTTTTTTTCACTCCACAGGTTATTGATTCATTACGGAGTCACCTAGTGCAG” belongs 9510 fluorescence intensity (a.u.); to “GATTCAATCTTCGTTTAACTGTCACCAATAATGACCGACCCGGAGTCACCTAGTGCAG”, 9300 fluorescence intensity (a.u.); to “CTCTTTTTTTTTCACCATGTTTGCAAGATACCAAATTTGTCGGAGTCACCTAGTGCAG”, 9310 fluorescence intensity (a.u.).
To “TCTTCTTCTTCCGTCGCTAATTAGATCGTCACTACCTCTTCGGAGTCACCTAGTGCAG” belongs 11500 fluorescence intensity (a.u.); to “GTACCTGCTCTTAGACGGTTGACCTTTTTCTTGTTTGGGACGGAGTCACCTAGTGCAG”, 8640 fluorescence intensity (a.u.).
